From article PMC7618375, “Structure and Methyl-lysine Binding Selectivity of the HUSH Complex Subunit MPP8” (Journal of molecular biology, 2024)
No constants are given. Whether binding was seen depends on the method and setting.

Target: T1, MPP8 chromodomain (CD, residues 55-116) (human), Q99549
T1 chain: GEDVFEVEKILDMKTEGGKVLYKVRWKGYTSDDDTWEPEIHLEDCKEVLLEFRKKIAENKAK
Assay: SEC-MALS; 100 ul of 4 mg/ml MPP8 CD on Superdex 75 10/300; 50 mM HEPES pH 7.5, 0.15 M NaCl, 0.5 mM TCEP, 293 K; both purified
Details: remark: other sources report otherwise

- binding: no binding (tested: 4 mg ml^−1)
B1: MPP8 chromodomain (CD, residues 55-116), Q99549 55-116 (domain or fragment)
chain: GEDVFEVEKILDMKTEGGKVLYKVRWKGYTSDDDTWEPEIHLEDCKEVLLEFRKKIAENKAK
